Source: PubChem BioAssay AID743454 (Peter MacCallum Cancer Centre, 2014)
The deposit covers about 18,000 reagents; shown is an unselected part. 450 of all reagents (2.5%) were called active. 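Single biological run; no consistent viability z cut-off exists, so the class columns, not z-scores, define the calls.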 No sequences are given here.

Aim: 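Search for knock-downs that restore vorinostat killing in resistant colon cancer cells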 (primary screen)
Cell system: human HCT116-VR colon cancer cells, selected for vorinostat resistance
Reagent: siRNA pool against human genes, 40 nM siRNA pool
Duration: vorinostat for 24 h, read-out about 72 h after transfection
Challenge: vorinostat at 2.5 µM final
Measurement: 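Cell viability by CellTiter-Fluor and caspase 3/7 activity by luminescence, each scaled to mock wells per plate, duplicates averaged, then robust z-scored over all plates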
Scale: viability robust z-score: higher = more viable cells than screen typical; caspase robust z-score: higher = more caspase 3/7 activity than screen typical
Call rule: 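a knock-down is a hit when classed RV1 or RV2 for lowered viability, or CA1 or CA2 for caspase activation; those lethal without drug were dropped; hits were retested singly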

| gene knocked down | viability hit class | caspase hit class | viability robust z-score | caspase robust z-score | call |
| --- | --- | --- | --- | --- | --- |
| SIPA1L1 | no change | no change | -0.84 | 1.19 | inactive |
| HCFC1R1 | no change | no change | -0.47 | -1.3 | inactive |
| CYP27C1 | no change | no change | -0.1 | 2.2 | inactive |
| BCKDK | no change | no change | 0.53 | -0.11 | inactive |
| MRPL42 | no change | no change | -1.68 | -0.55 | inactive |
| HPRT1 | no change | no change | -3.19 | 1.59 | inactive |
| MFSD12 | no change | no change | -1.04 | -1.28 | inactive |
| OVCH2 | no change | no change | -0.06 | -0.56 | inactive |
| PSMD2 | no change | no change | -6.11 | 3.09 | inactive |
| DAZ4 | no change | no change | -0.02 | -0.41 | inactive |
| SLC25A33 | no change | no change | -0.08 | 0.01 | inactive |
| GPR42 | no change | no change | -2.64 | 4.75 | inactive |
| OSMR | no change | no change | -0.07 | -0.62 | inactive |
| ZNF771 | no change | no change | 1.42 | 4.62 | inactive |
| UBA1 | no change | no change | -0.08 | 1.21 | inactive |
| SSX2IP | no change | no change | -0.94 | 0.88 | inactive |
| WDR76 | no change | no change | 0.01 | -0.95 | inactive |
| PRRG4 | no change | no change | 0.46 | 0.28 | inactive |
| P2RX3 | no change | no change | 0.76 | -0.04 | inactive |
| TRERF1 | no change | no change | -1.07 | 1.2 | inactive |
| ANKRD55 | no change | no change | -0.2 | -0.38 | inactive |
| SAMD11 | no change | no change | 0.34 | -1.08 | inactive |
| AMER2 | no change | no change | -2.19 | -0.15 | inactive |
| OR5T3 | no change | no change | -1.27 | 2.81 | inactive |
| FCRLB | no change | no change | 0.43 | -0.2 | inactive |
| GPR75 | no change | no change | -1.26 | 1.38 | inactive |
| RAB10 | no change | no change | -1.44 | 0.43 | inactive |
| PABIR2 | no change | no change | -0.1 | -0.88 | inactive |
| B4GAT1 | no change | no change | -0.22 | 1.37 | inactive |
| SLC38A5 | no change | no change | 0.42 | -0.18 | inactive |
| GGT2P | no change | no change | -0.06 | -0.72 | inactive |
| CS | no change | no change | 1.5 | -0.42 | inactive |

3 entries from above, reformatted.
MFSD12 | viability hit class = no change; caspase hit class = no change; viability robust z-score = -1.04; caspase robust z-score = -1.28; call = inactive
OVCH2 | viability hit class = no change; caspase hit class = no change; viability robust z-score = -0.06; caspase robust z-score = -0.56; call = inactive
PSMD2 | viability hit class = no change; caspase hit class = no change; viability robust z-score = -6.11; caspase robust z-score = 3.09; call = inactive

The listing continues:
| gene knocked down | viability hit class | caspase hit class | viability robust z-score | caspase robust z-score | call |
| --- | --- | --- | --- | --- | --- |
| SEPSECS | no change | no change | 0.27 | -0.75 | inactive |
| IL17RE | no change | no change | 0.17 | -0.24 | inactive |
| STYK1 | no change | no change | -1.11 | 1.08 | inactive |
| WNK3 | no change | no change | 0.66 | -0.42 | inactive |
| ZNF397 | no change | no change | 1.29 | 0.9 | inactive |
| GDF2 | no change | no change | -0.12 | -0.8 | inactive |
| RCOR3 | no change | no change | -0.42 | -0.31 | inactive |
| RPS9 | no change | no change | 0.14 | 0.06 | inactive |
| DSG1 | no change | no change | 0.58 | -0.03 | inactive |
| DICER1 | no change | no change | -0.2 | -0.83 | inactive |
| CAMSAP1 | no change | no change | 1.42 | -0.93 | inactive |
| MED22 | no change | no change | -0.1 | 1.21 | inactive |
| TMEM213 | no change | no change | -0.82 | 2.88 | inactive |
| SATB2 | no change | no change | -0.4 | 0.57 | inactive |
| EHF | no change | no change | 1.06 | 0.41 | inactive |
| ZNF75A | no change | no change | -0.05 | 0.02 | inactive |
| FBXW5 | no change | no change | -2.42 | 0.3 | inactive |
| CCDC92 | no change | no change | -0.62 | -0.18 | inactive |
| MTRES1 | no change | no change | 0.6 | -0.44 | inactive |
| BAIAP3 | no change | no change | -0.46 | 1.5 | inactive |
| ERV3-1 | no change | no change | 0.14 | 1.14 | inactive |
| DBH | no change | no change | -2.76 | 2.6 | inactive |
| TSC22D3 | no change | no change | -0.29 | -0.5 | inactive |
| NDUFA13 | no change | no change | 0.56 | 0 | inactive |
| ALDH1L1 | no change | no change | -0.27 | -0.26 | inactive |
